Patent publication US20120315284A1
No constants are given. Whether binding was seen depends on the method and setting. In cells and extracts the contact can be indirect. Some binding calls cover weakened binding; strength is not graded here.

Sequences of proteins named here, by UniProt entry; tags and fusion partners are left off. A change or cut given only in a name is not applied to a line headed by its entry.
UniProt O14733: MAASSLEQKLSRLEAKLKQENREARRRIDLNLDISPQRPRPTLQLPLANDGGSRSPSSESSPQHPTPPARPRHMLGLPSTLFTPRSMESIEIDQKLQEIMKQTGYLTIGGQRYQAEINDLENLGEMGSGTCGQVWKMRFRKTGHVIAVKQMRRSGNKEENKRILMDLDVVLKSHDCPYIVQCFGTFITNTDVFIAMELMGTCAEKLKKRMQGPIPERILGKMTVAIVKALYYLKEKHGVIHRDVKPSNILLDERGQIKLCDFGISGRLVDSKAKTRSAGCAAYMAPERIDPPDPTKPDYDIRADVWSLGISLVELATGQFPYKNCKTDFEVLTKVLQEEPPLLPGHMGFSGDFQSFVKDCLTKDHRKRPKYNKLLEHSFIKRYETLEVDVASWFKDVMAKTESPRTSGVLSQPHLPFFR

Molecular target: T1, TIP41 (full length TIP41 protein expressed from the pHA vector in HEK293T cells) (human) (UniProt O75663)
T1 sequence: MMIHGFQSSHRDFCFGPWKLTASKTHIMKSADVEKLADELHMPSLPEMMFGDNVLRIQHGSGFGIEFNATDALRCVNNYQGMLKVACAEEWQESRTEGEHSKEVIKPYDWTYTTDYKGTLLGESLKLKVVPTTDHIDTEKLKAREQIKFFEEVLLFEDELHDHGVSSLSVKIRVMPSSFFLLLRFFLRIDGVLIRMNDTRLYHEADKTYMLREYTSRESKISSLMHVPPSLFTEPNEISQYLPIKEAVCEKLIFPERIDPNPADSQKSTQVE
Test: GST pull-down from HEK293T lysate, Western blot

- binding: binds
Substance: MKK7 (full length MKK7 expressed from the pGST vector in HEK293T cells) (from UniProt O14733 1-419) (enzyme)
